These are yes or no findings as the source states them, for the method shown. Some binding calls cover weakened binding; strength is not graded here.
B1: 1D2 (ligand)
4-1BBL variant: ACPWAVSGARASPGSAASPRLREGPELSPDDPAGLLDLRQGMFAQLVAQNVLLIDGPLSWYEDPGLAGVSLTGGLSYKEDTKELVVAKAGVYYVFFQLELRRVVAGTGSGSVSLALHLQPLRSAAGAAALALTVDLPPASSEARNSAFGFQGRLLHLSAGQRLGVHLHTEARARHALQLTQGATVLGLFRVTPEIPAGLPSPRSE
notes: also called 4-1BBL variant 1D2 (phagemid clone, bacterial supernatant)
B2: 8B10 (ligand)
4-1BBL variant: ACPWAVSGARASPGSAASPRLREGPELSPDDPAGLLDLRQGMFAQLVAQNVLLIDGPLSWYTDPGLAGVSLTGGLSYKEDTKELVVAKAGVYYVFFQLELRRVVAGMGSGSVSLALHLQPLRSAAGAAALALTVDLPPASSEARNSAFGFQGRLLHLSAGQRLGVHLHTEARARHSWQLTQGATVLGLFRVTPEIPAGLPSPRSE
notes: also called 4-1BBL variant 8B10 (phagemid clone, bacterial supernatant)
B3: 4E10 (ligand)
4-1BBL variant: ACPWAVSGARASPGSAASPRLREGPELSPDDPAGLLDLRQGMFAQLVAQNVLLIDGPLSWYPDPGLAGVSLTGGLSYKEDTKELVVAKAGVYYVFFQLELRRVVAREGSGSVSLALHLQPLRSAAGAAALALTVDLPPASSEARNSAFGFQGRLLHLSAGQRLGVHLHTEARARHAMQLTQGATVLGLFRVTPEIPAGLPSPRSE
notes: also called 4-1BBL variant 4E10 (phagemid clone, bacterial supernatant)
B4: 5D9 (ligand)
4-1BBL variant: ACPWAVSGARASPGSAASPRLREGPELSPDDPAGLLDLRQGMFAQLVAQNVLLIDGPLSFYSDPGLAGVSLTGGLSYKEDTKELVVAKAGVYYVFFQLELRRVVAGTGSGSVSLALHLQPLRSAAGAAALALTVDLPPASSEARNSAFGFQGRLLHLSAGQRLGVHLHTEARARHAWQMTQGATVLGLFRVTPEIPAGLPSPRSE
notes: also called 4-1BBL variant 5D9 (phagemid clone, bacterial supernatant)

Amino acid sequences for entries named in this document (tags omitted). Residues count along the entry.
UniProt Q07011, residues 24-186: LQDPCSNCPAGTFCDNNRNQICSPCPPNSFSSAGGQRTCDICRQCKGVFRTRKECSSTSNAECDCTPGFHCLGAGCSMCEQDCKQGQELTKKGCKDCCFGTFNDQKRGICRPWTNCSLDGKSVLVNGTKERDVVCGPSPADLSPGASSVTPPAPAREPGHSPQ

Target: 4-1BB (coated on ELISA plate) (UniProt Q07011)
Experiment: ELISA on coated 4-1BB, class against wild type

Row | Binder | binding
1 | B1 | binds
2 | B2 | binds
3 | B3 | binds
4 | B4 | binds

From patent US20260193315A1 (FBD BIOLOGICS, published 2026)
